# Laboratory results from patent publication US20050181948A1 (priority 2002, published 2005).
# Some entries share one result that the patent states for a list of compounds.
# How the values were obtained:
# Botrytis cinerea = assay: Activity against gray mold on capsicum leaves caused by Botrytis cinerea; assay type: in vivo; settings: 250 ppm active ingredient, capsicum seedlings sprayed the day before inoculation, rated after 5 days; untreated plants 90%
# Phytophthora infestans = assay type: in vivo; settings: 250 ppm active ingredient, tomato leaves sprayed the day before inoculation, rated after 6 days; untreated plants 100%
structure (smiles),measurement,setting,value
CCC=C(C(=O)NCCc1ccc(OCC)c(OC)c1)c1ccccn1 [Example 2],disease level (extent of fungal infection on the leaves),Botrytis cinerea,not more than 5%
same,disease level,Phytophthora infestans,not more than 15%
